These results are taken from article doi:10.1101/2024.04.03.587867.

Test [1] has as its target FLAG-tagged SP110 ΔCARD (human). Kind of test: affinity purification with mass spectrometry.
Test [2] deals with FLAG-tagged full-length SP110 (speckled protein 110) (human). Kind of test: affinity purification with mass spectrometry.

These are yes or no findings as the source states them, for the method shown. In cells and extracts the contact can be indirect. These calls come from enrichment with a bait or labelling near it, and not all partners need be listed.

B1: SENP7, a deSUMOlyase (enzyme, UniProt Q9BQF6 1-1050)
chain: MDKRKLGRRPSSSEIITEGKRKKSSSDLSEIRKMLNAKPEDVHVQSPLSKFRSSERWTLPLQWERSLRNKVISLDHKNKKHIRGCPVTSKSSPERQLKVMLTNVLWTDLGRKFRKTLPRNDANLCDANKVQSDSLPSTSVDSLETCQKLEPLRQSLNLSERIPRVILTNVLGTELGRKYIRTPPVTEGSLSDTDNLQSEQLSSSSDGSLESYQNLNPHKSCYLSERGSQRSKTVDDNSAKQTAHNKEKRRKDDGISLLISDTQPEDLNSGSRGCDHLEQESRNKDVKYSDSKVELTLISRKTKRRLRNNLPDSQYCTSLDKSTEQTKKQEDDSTISTEFEKPSENYHQDPKLPEEITTKPTKSDFTKLSSLNSQELTLSNATKSASAGSTTETVENSNSIDIVGISSLVEKDENELNTIEKPILRGHNEGNQSLISAEPIVVSSDEEGPVEHKSSEILKLQSKQDRETTNENESTSESALLELPLITCESVQMSSELCPYNPVMENISSIMPSNEMDLQLDFIFTSVYIGKIKGASKGCVTITKKYIKIPFQVSLNEISLLVDTTHLKRFGLWKSKDDNHSKRSHAILFFWVSSDYLQEIQTQLEHSVLSQQSKSSEFIFLELHNPVSQREELKLKDIMTEISIISGELELSYPLSWVQAFPLFQNLSSKESSFIHYYCVSTCSFPAGVAVAEEMKLKSVSQPSNTDAAKPTYTFLQKQSSGCYSLSITSNPDEEWREVRHTGLVQKLIVYPPPPTKGGLGVTNEDLECLEEGEFLNDVIIDFYLKYLILEKASDELVERSHIFSSFFYKCLTRKENNLTEDNPNLSMAQRRHKRVRTWTRHINIFNKDYIFVPVNESSHWYLAVICFPWLEEAVYEDFPQTVSQQSQAQQSQNDNKTIDNDLRTTSTLSLSAEDSQSTESNMSVPKKMCKRPCILILDSLKAASVQNTVQNLREYLEVEWEVKLKTHRQFSKTNMVDLCPKVPKQDNSSDCGVYLLQYVESFFKDPIVNFELPIHLEKWFPRHVIKTKREDIRELILKLHLQQQKGSSS
With B1, the binding entry in test [1] and in test [2] was “binds” each time.
